Results as given in PMC10767093.
No constants are given. Whether binding was seen depends on the method and setting. Binding seen in cells or lysates may run through a third protein. Some entries that bind do so weakly or less than the wild type.

The chains behind the UniProt entries cited, without tags or fusion partners. Residues count along the entry.
UniProt O60260: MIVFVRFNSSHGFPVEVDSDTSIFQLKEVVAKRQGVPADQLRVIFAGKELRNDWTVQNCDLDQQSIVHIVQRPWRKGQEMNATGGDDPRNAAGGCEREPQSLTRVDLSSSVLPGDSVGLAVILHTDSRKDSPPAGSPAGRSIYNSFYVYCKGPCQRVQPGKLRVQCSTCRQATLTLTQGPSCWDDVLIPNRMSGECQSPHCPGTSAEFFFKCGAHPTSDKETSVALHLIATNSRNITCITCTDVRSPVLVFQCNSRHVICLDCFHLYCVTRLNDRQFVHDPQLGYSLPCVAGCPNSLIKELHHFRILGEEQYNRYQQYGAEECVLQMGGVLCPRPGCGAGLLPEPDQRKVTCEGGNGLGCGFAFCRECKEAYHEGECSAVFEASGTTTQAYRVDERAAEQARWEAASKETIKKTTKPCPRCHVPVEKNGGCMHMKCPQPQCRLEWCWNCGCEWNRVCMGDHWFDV
UniProt Q15843, residues 1-76: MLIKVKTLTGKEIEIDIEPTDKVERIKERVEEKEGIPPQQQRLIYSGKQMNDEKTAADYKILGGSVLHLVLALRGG
UniProt P29595, residues 1-76: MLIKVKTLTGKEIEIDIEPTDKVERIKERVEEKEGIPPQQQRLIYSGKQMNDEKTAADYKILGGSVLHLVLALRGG

Experiments:
[1] = target: Parkin in 293 T cells (human (endogenous in 293 T)) (UniProt O60260); assay: co-IP; NEDD8 and Parkin from 293 T cells and murine Tregs, either over-expressing NEDD8 (OE-NEDD8) or treated with MLN4924 (3 uM); western blot of whole-cell lysates and immunoprecipitates
[2] = target: T1, Parkin in murine Tregs (mouse (endogenous in murine Tregs)) (UniProt Q9WVS6); assay: as above
T1 sequence: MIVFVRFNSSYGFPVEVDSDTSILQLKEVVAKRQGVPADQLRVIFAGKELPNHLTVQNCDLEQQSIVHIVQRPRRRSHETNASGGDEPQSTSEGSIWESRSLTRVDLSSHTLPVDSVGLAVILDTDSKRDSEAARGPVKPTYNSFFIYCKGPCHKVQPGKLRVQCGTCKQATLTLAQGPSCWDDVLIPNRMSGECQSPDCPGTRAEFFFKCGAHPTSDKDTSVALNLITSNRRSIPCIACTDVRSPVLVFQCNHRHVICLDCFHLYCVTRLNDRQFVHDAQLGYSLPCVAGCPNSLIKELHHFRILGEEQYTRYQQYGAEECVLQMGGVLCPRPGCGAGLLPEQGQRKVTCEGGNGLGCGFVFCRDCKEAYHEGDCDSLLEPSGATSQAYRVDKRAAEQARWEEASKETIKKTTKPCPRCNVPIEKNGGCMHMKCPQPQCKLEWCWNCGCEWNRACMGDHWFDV

binding [1] | binding [2] | Substance
binds | – | NEDD8 in 293 T cells (from UniProt Q15843 1-76)
– | binds | NEDD8 in murine Tregs (from UniProt P29595 1-76)
